Construct, isoform or probe ends are uncertain for at least one entry.
Test system: His-OBP3 (Arabidopsis thaliana)
Assay: EMSA
Conditions: EMSA: 1 ug poly(dI:dC), 0.5 ug protein, 10 fmol biotin-dsDNA, room temperature 20 min, run in 0.5x TBE pH 8.3; binding buffer not stated; recombinant protein; protein details: His; label: biotin

Sequence | binding result
ACCATGAGAATTAGATAACAATTAATCA (double strand) [bHLH101-k] | binds
GCTATTTTGATTTGTTATAATTCAAG (double strand) [bHLH100-g] | binds
TAGAAAAGTTAATAACAAAGCAAATAA (double strand) [bHLH038-c] | binds
